Consider one substance from PMC9943860.

Chains of the proteins cited; added tags and fusions are not shown. Lines headed by an entry give the natural chain unless they say otherwise; changes in a name come on top.
UniProt P29466: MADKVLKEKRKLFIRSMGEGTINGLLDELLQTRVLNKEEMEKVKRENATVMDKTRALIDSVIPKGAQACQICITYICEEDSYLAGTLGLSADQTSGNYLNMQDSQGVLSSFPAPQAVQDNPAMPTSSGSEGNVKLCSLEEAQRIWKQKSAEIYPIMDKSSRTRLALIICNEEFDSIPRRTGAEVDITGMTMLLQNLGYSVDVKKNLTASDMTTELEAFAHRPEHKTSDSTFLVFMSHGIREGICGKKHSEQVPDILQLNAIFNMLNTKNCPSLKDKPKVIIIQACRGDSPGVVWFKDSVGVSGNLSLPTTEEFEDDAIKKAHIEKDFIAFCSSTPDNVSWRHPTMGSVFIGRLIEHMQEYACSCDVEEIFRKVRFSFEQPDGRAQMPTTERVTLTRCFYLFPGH

Results are given in words; binding and its absence hold for the method and conditions named. Binding seen in cells or lysates may run through a third protein. Tags and fused reporters may be left off the sequences shown.

In the assay the target is T1, wildtype GSDMA with a C-terminal FLAG tag (UniProt Q96QA5).
T1 sequence: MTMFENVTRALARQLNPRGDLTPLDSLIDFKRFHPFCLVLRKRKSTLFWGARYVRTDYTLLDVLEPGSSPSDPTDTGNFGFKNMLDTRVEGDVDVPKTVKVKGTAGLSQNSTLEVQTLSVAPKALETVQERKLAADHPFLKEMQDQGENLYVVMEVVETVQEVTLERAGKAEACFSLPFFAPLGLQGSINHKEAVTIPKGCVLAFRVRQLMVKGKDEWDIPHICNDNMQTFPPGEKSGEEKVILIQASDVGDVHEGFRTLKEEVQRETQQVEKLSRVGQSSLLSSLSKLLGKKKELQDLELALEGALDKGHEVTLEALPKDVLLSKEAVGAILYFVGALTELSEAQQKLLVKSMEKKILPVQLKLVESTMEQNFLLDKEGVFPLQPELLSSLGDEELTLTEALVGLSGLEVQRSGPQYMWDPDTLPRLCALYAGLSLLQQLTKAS
The assay can be described thus: co-IP; HEK293T cotransfected with FLAG-tagged gasdermin and caspase-1 C285A; about 16 h after transfection lysed in Triton lysis buffer (150 mM NaCl, 50 mM Tris pH 7.4, 1% Triton X-100); Anti-FLAG M2 Affinity gel overnight; washed three times; blotted for caspase-1.

For the substance “catalytic dead caspase-1 (Caspase-1 C285A) (from UniProt P29466 1-404) (enzyme)”, the binding result is “no binding”.
